Laboratory results reported in the supplement of paper PMC6411743.
± gives the standard deviation of the averaged measurements. This is a selection; strong and weak results do not stand in their true shares.

Target: A0A0A0MT26|P13637 and related entries (UniProt P13637)
Assay: NP40-soluble protein abundance relative to vehicle (solubility fold change) (ratio); higher = more soluble protein in presence of ATP
Method in brief: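 Data come from three independent experiments in which Dounce-homogenised Jurkat crude lysate was treated at eight concentrations from 0.1 to 10 mM. Treatment ran 10 min at room temperature and then 3 min at 37 °C, after which 0.8% NP40 and benzonase were added for 60 min at 4 °C before ultracentrifugation. The supernatant underwent TMT labelling and LC-MS/MS, and vsn-normalised intensities were expressed as fold change against the detergent-processed vehicle in each replicate.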

Structure (SMILES): Nc1ncnc2c1ncn2[C@@H]1O[C@H](COP(=O)(O)OP(=O)(O)OP(=O)(O)O)[C@@H](O)[C@H]1O [adenosine triphosphate]
- NP40-soluble protein abundance (concentration: 1mM): 1.02 ± 0.028
- NP40-soluble protein abundance (concentration: 2mM): 1 ± 0.028
- NP40-soluble protein abundance (concentration: 4mM): 0.984 ± 0.043
- NP40-soluble protein abundance (concentration: 6mM): 1.02 ± 0.013
- NP40-soluble protein abundance (concentration: 8mM): 0.976 ± 0.048
- NP40-soluble protein abundance (concentration: 10mM): 0.955 ± 0.051
